Here are results for 1 substance from article PMC10989685.

Sequences of proteins named here, by UniProt entry; tags and fusion partners are left off. Residues count along the entry.
UniProt E9Q7X7, residues 29-1634: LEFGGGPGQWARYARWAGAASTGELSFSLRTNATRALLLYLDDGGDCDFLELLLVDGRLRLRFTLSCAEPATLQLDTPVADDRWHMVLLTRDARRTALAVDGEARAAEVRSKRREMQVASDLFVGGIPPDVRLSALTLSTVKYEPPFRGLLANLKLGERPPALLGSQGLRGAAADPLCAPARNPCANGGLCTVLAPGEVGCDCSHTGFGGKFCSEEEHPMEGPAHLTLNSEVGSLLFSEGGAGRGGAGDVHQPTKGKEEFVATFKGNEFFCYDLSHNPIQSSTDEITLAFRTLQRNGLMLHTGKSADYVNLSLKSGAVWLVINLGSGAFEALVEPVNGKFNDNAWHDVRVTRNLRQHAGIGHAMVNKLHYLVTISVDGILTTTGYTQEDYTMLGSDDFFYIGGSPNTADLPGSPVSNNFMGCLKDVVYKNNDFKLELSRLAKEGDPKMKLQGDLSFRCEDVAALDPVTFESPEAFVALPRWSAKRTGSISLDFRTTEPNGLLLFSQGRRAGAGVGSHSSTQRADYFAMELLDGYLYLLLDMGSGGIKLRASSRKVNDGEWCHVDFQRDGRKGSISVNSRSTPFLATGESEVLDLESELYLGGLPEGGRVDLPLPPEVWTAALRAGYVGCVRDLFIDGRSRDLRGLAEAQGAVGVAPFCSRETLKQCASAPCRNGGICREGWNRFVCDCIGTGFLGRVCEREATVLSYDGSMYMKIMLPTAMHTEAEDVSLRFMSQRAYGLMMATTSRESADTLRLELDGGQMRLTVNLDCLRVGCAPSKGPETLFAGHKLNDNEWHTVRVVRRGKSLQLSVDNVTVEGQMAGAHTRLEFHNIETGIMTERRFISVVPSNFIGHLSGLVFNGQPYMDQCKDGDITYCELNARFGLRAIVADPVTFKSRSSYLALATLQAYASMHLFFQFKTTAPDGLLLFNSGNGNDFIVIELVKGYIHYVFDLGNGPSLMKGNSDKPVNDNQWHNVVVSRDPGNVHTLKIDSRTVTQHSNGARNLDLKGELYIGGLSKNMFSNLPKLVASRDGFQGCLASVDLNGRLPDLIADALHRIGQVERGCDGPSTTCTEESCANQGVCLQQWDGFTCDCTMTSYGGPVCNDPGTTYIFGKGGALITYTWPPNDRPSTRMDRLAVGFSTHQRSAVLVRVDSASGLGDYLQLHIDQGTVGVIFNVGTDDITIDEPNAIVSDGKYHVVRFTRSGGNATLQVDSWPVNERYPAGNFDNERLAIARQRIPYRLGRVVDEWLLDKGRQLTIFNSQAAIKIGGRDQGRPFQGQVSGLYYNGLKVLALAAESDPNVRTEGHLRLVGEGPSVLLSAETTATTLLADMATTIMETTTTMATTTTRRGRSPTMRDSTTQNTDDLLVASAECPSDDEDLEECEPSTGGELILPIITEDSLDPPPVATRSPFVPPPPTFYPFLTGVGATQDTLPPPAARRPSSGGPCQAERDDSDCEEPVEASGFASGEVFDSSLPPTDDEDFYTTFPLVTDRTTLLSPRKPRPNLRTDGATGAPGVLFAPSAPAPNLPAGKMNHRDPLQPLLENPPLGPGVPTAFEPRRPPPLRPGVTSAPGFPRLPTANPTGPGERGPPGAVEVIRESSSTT

Test in all cases: in situ cell surface binding assay (fluorescence microscopy); HEK293T conditioned medium with Nrxn2α-Fc applied for 1 h at 4°C to COS7 cells expressing HA-tagged IgSF21 forms, in extracellular solution with 2 mM CaCl2, 1.3 mM MgCl2; bound Fc signal divided by surface HA signal and normalised to IgSF21 WT
The target of test [1] is T1, IgSF21-HA R55D (mouse) (UniProt Q7TNR6).
T1 sequence: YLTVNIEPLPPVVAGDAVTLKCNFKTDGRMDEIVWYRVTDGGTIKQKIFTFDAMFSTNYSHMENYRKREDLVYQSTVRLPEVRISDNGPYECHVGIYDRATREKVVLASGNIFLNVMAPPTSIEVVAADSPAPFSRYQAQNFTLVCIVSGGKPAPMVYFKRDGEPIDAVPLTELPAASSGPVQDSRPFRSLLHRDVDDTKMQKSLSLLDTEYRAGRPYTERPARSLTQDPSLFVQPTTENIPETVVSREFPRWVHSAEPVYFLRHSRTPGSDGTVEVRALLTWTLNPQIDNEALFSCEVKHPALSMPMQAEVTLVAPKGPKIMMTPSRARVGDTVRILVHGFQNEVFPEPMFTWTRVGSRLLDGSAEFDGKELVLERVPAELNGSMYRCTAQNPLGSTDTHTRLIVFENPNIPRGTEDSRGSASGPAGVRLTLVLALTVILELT

For test [2], the target named is T2, IgSF21-HA E56N/V58T (mouse) (UniProt Q7TNR6).
T2 sequence: T1 sequence with D31R, E32N, V34T

The target of test [3] is extracellularly HA-tagged mouse IgSF21 (IgSF21-HA), wild type (mouse) (UniProt Q7TNR6).
Test [4] deals with T3, IgSF21-HA R102K (mouse) (UniProt Q7TNR6).
T3 sequence: T1 sequence with D31R, R78K

In test [5] the target is T4, IgSF21-HA E56R (mouse) (UniProt Q7TNR6).
T4 sequence: T1 sequence with D31R, E32R

Positions count from the first letter of the chain named. No constants are given. Whether binding was seen depends on the method and setting. Some results given as binding are weak or reduced against the parent protein; the word gives no strength. For some assays here: Tags and fused reporters may be left off the sequences shown.

As to “soluble Fc-tagged mouse Nrxn2α ectodomain (Nrxn2α-Fc) (from UniProt E9Q7X7 29-1634) (Fc fusion)”, the binding entry in test [1] is given as “no binding”; in test [2], “no binding”; in test [3] it was “binds”; in test [4], “binds”; in test [5] it was “no binding”.
